# Laboratory results reported in the supplement of paper PMC12819154, “High-throughput peptide-centric local stability assay extends protein–ligand identification to membrane proteins, tissues and bacteria” (Nature Structural & Molecular Biology, 2025).
# The chains behind the UniProt entries cited, without tags or fusion partners. Where a name states a change or a piece, a line headed by the entry shows the natural chain unless it says otherwise.
# UniProt Q69ZQ2: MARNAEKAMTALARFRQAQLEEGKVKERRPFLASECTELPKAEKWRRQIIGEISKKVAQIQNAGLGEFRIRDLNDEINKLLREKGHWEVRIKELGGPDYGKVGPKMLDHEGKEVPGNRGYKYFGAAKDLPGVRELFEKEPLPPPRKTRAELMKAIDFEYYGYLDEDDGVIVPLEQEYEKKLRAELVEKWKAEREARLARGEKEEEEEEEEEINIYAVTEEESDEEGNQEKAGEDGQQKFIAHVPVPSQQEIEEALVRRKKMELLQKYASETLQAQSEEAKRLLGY
# UniProt Q6P073: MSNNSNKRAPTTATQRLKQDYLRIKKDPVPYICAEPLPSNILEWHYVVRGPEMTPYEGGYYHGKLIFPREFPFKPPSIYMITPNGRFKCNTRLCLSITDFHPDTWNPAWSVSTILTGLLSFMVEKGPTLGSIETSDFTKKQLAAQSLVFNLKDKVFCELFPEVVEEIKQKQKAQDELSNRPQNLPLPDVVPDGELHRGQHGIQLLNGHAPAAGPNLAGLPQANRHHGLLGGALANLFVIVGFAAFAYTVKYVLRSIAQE
# UniProt Q6A026: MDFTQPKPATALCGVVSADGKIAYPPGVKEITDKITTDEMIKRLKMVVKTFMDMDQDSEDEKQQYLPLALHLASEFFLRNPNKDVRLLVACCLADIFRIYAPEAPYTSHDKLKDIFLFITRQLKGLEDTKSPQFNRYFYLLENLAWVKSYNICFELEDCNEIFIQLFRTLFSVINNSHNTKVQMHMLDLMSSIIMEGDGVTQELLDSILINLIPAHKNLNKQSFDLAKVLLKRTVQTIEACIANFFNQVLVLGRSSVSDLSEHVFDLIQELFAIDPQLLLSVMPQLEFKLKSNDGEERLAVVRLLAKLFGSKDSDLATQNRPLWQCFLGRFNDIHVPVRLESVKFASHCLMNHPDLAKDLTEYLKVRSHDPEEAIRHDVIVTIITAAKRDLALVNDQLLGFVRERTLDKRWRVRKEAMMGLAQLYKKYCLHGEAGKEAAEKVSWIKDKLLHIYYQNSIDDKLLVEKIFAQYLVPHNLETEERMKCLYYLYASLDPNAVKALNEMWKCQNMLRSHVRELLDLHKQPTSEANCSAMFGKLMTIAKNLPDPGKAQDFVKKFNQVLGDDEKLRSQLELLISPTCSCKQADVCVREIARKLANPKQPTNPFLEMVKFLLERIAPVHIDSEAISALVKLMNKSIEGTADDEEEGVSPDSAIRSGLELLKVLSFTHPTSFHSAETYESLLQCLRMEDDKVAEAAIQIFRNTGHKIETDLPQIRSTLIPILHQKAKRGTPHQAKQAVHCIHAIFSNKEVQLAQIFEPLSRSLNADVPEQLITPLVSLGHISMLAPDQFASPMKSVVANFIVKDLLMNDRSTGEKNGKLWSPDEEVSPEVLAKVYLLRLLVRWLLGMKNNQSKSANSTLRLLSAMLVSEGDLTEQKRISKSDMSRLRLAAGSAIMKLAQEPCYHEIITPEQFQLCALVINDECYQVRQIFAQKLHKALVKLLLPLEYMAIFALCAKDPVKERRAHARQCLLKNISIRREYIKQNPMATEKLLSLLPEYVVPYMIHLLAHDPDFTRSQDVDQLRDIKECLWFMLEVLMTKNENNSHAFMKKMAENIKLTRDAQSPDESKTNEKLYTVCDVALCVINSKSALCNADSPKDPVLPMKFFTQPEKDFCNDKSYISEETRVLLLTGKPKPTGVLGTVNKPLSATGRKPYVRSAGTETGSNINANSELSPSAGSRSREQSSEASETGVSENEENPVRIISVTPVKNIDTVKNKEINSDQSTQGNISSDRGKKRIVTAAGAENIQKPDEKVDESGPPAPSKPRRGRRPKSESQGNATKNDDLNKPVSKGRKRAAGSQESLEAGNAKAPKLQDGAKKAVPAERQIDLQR
# UniProt Q6P3D0: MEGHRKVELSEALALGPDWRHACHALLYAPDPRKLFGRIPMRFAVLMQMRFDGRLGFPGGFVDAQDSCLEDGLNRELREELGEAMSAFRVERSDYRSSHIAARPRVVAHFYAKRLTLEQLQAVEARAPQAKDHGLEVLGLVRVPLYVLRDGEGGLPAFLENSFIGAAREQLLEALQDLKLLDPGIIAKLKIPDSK
# UniProt Q6P9Z1, whole entry: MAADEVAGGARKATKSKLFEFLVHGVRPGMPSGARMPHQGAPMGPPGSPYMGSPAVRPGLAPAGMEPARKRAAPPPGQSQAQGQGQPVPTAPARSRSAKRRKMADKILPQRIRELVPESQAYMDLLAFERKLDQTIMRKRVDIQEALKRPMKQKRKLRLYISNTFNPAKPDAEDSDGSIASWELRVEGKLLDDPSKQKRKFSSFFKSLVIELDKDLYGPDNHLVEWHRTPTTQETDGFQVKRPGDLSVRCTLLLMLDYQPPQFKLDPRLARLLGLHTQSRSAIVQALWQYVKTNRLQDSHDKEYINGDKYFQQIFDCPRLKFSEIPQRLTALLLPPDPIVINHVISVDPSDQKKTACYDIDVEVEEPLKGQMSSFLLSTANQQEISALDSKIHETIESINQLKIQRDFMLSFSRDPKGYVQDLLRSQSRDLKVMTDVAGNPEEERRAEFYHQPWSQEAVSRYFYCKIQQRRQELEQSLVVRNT
# UniProt Q6P8I4: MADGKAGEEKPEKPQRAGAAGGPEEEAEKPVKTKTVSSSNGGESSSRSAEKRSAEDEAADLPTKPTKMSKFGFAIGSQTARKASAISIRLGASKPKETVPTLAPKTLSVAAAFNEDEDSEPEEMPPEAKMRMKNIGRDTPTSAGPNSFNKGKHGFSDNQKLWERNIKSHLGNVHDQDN
# UniProt Q6P9Q4: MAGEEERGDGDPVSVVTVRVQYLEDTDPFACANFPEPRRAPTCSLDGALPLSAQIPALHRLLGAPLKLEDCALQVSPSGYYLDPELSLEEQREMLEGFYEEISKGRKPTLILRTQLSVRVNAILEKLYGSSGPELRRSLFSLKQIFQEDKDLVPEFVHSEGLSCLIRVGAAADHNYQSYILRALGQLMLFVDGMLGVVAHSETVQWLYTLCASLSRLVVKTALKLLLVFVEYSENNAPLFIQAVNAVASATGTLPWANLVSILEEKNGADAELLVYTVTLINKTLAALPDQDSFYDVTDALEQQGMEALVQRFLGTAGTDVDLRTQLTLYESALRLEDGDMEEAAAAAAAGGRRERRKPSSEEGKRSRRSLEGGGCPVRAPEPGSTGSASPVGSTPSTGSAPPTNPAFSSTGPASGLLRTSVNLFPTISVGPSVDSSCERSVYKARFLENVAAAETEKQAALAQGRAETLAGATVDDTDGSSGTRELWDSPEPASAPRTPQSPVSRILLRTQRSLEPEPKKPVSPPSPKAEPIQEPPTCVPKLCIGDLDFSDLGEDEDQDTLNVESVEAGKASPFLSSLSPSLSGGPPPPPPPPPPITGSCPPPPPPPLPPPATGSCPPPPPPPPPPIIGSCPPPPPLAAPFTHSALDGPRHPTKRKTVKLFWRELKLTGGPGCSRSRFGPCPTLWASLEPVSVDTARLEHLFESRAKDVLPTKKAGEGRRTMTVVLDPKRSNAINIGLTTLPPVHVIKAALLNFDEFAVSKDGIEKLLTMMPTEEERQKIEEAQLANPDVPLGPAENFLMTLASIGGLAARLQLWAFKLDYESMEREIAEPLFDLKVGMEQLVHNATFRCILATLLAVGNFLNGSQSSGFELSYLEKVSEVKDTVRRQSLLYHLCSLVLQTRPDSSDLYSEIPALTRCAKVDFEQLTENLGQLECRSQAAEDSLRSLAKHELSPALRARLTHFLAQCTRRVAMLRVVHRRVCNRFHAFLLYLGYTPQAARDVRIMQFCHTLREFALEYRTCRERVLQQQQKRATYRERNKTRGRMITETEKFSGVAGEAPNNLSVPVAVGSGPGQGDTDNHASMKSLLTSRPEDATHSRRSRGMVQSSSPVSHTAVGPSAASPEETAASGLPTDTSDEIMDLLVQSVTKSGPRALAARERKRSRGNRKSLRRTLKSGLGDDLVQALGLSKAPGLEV
# UniProt Q6NZQ2: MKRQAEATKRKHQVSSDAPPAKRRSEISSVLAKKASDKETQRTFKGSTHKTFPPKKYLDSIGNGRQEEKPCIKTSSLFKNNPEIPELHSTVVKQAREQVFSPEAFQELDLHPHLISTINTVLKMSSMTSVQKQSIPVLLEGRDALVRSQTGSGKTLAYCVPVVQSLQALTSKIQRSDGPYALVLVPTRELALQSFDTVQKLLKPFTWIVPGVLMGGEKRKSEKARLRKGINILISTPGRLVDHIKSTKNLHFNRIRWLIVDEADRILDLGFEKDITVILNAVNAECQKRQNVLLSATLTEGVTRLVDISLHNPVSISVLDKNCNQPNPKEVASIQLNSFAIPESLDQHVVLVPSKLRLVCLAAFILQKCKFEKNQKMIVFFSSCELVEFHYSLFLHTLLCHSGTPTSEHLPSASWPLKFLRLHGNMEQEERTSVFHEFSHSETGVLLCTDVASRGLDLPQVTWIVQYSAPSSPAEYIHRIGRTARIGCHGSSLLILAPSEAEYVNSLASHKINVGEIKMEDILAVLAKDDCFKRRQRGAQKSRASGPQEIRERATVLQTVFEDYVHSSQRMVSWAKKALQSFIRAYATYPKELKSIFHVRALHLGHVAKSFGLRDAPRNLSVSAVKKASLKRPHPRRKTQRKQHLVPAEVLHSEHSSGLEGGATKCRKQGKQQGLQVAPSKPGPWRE
# UniProt Q6PGH2: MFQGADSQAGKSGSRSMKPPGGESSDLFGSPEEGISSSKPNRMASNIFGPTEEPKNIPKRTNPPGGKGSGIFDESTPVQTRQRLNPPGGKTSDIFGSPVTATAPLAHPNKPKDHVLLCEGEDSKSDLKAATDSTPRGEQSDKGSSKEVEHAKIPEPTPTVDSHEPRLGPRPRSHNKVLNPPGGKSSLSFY
# UniProt Q6SJQ5: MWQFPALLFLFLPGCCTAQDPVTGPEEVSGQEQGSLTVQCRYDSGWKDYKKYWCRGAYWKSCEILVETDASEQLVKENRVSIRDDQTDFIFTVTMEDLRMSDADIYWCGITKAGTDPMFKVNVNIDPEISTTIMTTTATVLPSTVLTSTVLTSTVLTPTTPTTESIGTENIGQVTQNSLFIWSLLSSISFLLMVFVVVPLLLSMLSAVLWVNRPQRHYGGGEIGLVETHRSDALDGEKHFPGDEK
# UniProt Q6NS59: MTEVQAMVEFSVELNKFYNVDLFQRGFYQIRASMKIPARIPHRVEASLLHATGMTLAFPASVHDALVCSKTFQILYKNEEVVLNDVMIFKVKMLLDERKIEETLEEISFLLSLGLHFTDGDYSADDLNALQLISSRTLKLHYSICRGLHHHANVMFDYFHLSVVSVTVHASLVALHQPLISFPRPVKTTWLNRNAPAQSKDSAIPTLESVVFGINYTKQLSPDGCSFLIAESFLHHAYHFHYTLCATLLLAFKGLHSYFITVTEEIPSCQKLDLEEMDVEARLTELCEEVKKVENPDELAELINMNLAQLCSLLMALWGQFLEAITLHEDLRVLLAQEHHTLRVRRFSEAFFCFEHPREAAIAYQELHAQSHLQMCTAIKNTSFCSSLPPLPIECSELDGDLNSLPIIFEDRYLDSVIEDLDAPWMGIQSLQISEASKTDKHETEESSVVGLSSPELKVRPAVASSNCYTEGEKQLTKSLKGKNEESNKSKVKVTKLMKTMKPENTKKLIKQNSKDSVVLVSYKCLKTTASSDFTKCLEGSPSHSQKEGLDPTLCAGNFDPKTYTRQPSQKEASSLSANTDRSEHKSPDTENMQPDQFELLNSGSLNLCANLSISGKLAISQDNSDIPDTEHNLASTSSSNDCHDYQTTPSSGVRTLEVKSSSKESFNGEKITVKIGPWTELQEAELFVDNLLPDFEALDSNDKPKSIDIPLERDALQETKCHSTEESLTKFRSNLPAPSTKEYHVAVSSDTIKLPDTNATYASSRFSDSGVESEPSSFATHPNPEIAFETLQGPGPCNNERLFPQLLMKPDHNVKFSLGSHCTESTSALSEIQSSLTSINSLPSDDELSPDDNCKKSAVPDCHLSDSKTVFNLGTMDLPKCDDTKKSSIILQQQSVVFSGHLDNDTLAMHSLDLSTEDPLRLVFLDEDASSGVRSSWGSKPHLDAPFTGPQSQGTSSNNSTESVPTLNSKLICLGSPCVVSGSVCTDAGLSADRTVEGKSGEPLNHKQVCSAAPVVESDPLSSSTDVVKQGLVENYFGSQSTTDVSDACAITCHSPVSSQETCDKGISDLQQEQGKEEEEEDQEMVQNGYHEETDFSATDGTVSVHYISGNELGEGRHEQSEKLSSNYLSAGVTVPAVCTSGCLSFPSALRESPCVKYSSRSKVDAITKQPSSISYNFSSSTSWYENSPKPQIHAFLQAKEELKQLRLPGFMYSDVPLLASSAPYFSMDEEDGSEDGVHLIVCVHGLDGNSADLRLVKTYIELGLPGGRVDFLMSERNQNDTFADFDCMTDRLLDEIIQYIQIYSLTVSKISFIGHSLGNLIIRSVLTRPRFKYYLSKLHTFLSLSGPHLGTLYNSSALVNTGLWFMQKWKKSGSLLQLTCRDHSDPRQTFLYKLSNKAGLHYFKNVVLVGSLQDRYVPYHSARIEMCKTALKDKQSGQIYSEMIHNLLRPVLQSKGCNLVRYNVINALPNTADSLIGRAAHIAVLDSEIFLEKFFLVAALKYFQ
# The list shows a part of the results. Small differences around the control level are noise.
# Compound: CN[C@@H]1C[C@H]2O[C@@](C)([C@@H]1OC)n1c3ccccc3c3c4c(c5c6ccccc6n2c5c31)C(=O)NC4 [staurosporine]
# Assay: log2 fold change of tryptic peptide abundance, ligand vs vehicle (limited proteolysis) (log2 ratio); higher = more trypsin-susceptible (destabilized)
# Details: ligand concentration: 20 uM; sample: mouse liver crude lysate; replicate design: treated separately
row,Target,log2 fold change
1,"UniProt Q69ZQ2 (peptide sequence: DLNDEINK, peptide start residue: 72)",-0.44
2,"UniProt Q6P6I6 (peptide sequence: FICKLPDK, peptide start residue: 40)",0.378
3,"UniProt Q6PE54 (peptide sequence: IQDHSDTLKETG, peptide start residue: 768)",0.26
4,"UniProt Q6P6J9 (peptide sequence: FSASLAPHFNSLPR, peptide start residue: 206)",-0.264
5,"UniProt Q6P6L0 (peptide sequence: ELSQEVENLK, peptide start residue: 625)",-0.245
6,"UniProt Q6P9Q6 (peptide sequence: HNQDSQHCSLSGDEEDELFK, peptide start residue: 1149)",-0.793
7,"UniProt Q6PCL9 (peptide sequence: SSLDSTCLDSSR, peptide start residue: 523)",0.216
8,"UniProt Q6PG16 (peptide sequence: LNPDSPQQSSQK, peptide start residue: 598)",0.538
9,"UniProt Q6P073 (peptide sequence: LKQDYLR, peptide start residue: 17)",-0.0145
10,"UniProt Q6A026 (peptide sequence: SQDVDQLR, peptide start residue: 1017)",0.195
11,"UniProt Q6PEM6 (peptide sequence: ILPAHGQSETIGILHK, peptide start residue: 332)",0.262
12,"UniProt Q6P3D0 (peptide sequence: ELREELGEAMSAFRVER, peptide start residue: 76)",-0.44
13,"UniProt Q6A098 (peptide sequence: ETSATGPDSR, peptide start residue: 199)",-0.344
14,"UniProt Q6P9Z1 (peptide sequence: IHETIESINQLK, peptide start residue: 440)",-0.121
15,"UniProt Q6PDX6 (peptide sequence: KQDEGQR, peptide start residue: 326)",-0.0744
16,"UniProt Q6P8I4 (peptide sequence: SHLGNVHDQDN, peptide start residue: 168)",0.0968
17,"UniProt Q6P9Q4 (peptide sequence: KPVSPPSPK, peptide start residue: 521)",-0.399
18,"UniProt Q6VVW5 (peptide sequence: GSSYGSLMTAHGK, peptide start residue: 521)",-0.119

row,Target,log2 fold change
1,"UniProt Q6PD21 (peptide sequence: TKSPPQPPRPDYR, peptide start residue: 16)",-0.22
2,"UniProt Q6PA06 (peptide sequence: IYQGEELPHPK, peptide start residue: 362)",0.286
3,"UniProt Q6NZQ2 (peptide sequence: QSIPVLLEGR, peptide start residue: 133)",-0.334
4,"UniProt Q6PGF3 (peptide sequence: SLDEPALK, peptide start residue: 400)",0.134
5,"UniProt Q6PGA0 (peptide sequence: EGNADQPVQTSK, peptide start residue: 238)",-0.192
6,"UniProt Q6NZB1 (peptide sequence: LGFWSQVK, peptide start residue: 208)",-0.0898
7,"UniProt Q6P3B2 (peptide sequence: AHPAMEAER, peptide start residue: 168)",0.0176
8,"UniProt Q6NZN0 (peptide sequence: RLNHSPPQSSSR, peptide start residue: 123)",-0.331
9,"UniProt Q6P6J0 (peptide sequence: AEEAVELLK, peptide start residue: 160)",0.0798
10,"UniProt Q6PGH2 (peptide sequence: QRLNPPGGK, peptide start residue: 82)",-0.295
11,"UniProt Q6PGB6 (peptide sequence: RIEPADAHVLQK, peptide start residue: 141)",-0.421
12,"UniProt Q6PB44 (peptide sequence: AALPTPALTPEDK, peptide start residue: 540)",0.337
13,"UniProt Q6VH22 (peptide sequence: SHYGYEVEEVK, peptide start residue: 351)",-0.0815
14,"UniProt Q6SJQ5 (peptide sequence: HYGGGEIGLVETHR, peptide start residue: 217)",-0.00151
15,"UniProt Q6NS59 (peptide sequence: SAVPDCHLSDSK, peptide start residue: 858)",-0.169
16,"UniProt Q6P3E7 (peptide sequence: QYNAVYFHPDTFHCAR, peptide start residue: 89)",-0.392
17,"UniProt Q6P7W2 (peptide sequence: HSLVGPQQIGGRPAPVRR, peptide start residue: 143)",-0.197
18,"UniProt Q6IEE6 (peptide sequence: ESEDEEEEEEERR, peptide start residue: 569)",0.208

# Given tab-delimited: part of the list above
row	Target	log2 fold change
8	UniProt Q6NZN0 (peptide sequence: RLNHSPPQSSSR, peptide start residue: 123)	-0.331
9	UniProt Q6P6J0 (peptide sequence: AEEAVELLK, peptide start residue: 160)	0.0798
10	UniProt Q6PGH2 (peptide sequence: QRLNPPGGK, peptide start residue: 82)	-0.295
11	UniProt Q6PGB6 (peptide sequence: RIEPADAHVLQK, peptide start residue: 141)	-0.421
12	UniProt Q6PB44 (peptide sequence: AALPTPALTPEDK, peptide start residue: 540)	0.337
13	UniProt Q6VH22 (peptide sequence: SHYGYEVEEVK, peptide start residue: 351)	-0.0815
14	UniProt Q6SJQ5 (peptide sequence: HYGGGEIGLVETHR, peptide start residue: 217)	-0.00151
